Test results reported in US4315938A, “4-Phenyl-4,5,6,7-tetrahydro-pyrrolo [2,3-c] pyridines and salts thereof” (Boehringer Ingelheim Gmbh, priority 1979, dated 1982).
At least one compound was matched to its structure with a doubt left.

Key:
[1] = tested on: uptake of noradrenaline by the neurons (synaptosomes); assay: Inhibition of noradrenaline uptake by synaptosomes of homogenized cerebrum; type: biochemical; settings: rat cerebrum synaptosomes, 10 minutes at 37° C.; read-out: Noradrenaline inhibition IC 50
Experimental: (§1) It is now believed that various forms of depression cause a deficiency of certain physiologically important amines, particularly noradrenaline and serotonin, in certain parts of the brain, and that the amount of such amines may be increased by inhibiting their uptake by neurons.
(§2) The test is performed on the homogenized, isolated cerebrum of the rat. A suspension of synaptosomes thus obtained is incubated with […] noradrenaline and/or serotonin and various concentrations of a solution of the test substance in water for 10 minutes at 37° C. When the incubation is finished, the medium is separated by filtering, and the radioactivity of the suspension of synaptosomes is measured.
(§3) A control test in the absence of the test substance is simultaneously carried out in order to determine the quantity of radioactive amines taken up. The quantity of the test substance in mols which is required to inhibit 50% of the uptake is designated the IC 50.

[2] = tested on: uptake of serotonin by the neurons (synaptosomes); assay: Inhibition of serotonin uptake by synaptosomes of homogenized cerebrum; type: biochemical; settings: rat cerebrum synaptosomes, 10 minutes at 37° C.; read-out: Serotonin inhibition IC 50
Experimental: as §1, §2, §3

| Structure (SMILES) | IC50 [1] [nM] | IC50 [2] [nM] |
| --- | --- | --- |
| CN1Cc2c(cc(CN3CCCCCC3)n2C)C(c2ccc(Br)cc2)C1 (stereo not drawn) [1,6-dimethyl-2-hexahydro-azepine-1-yl-methyl-4-(p-bromophenyl)-4,5,6,7-tetrahydro-pyrrolo[2,3-c]-pyridine dimaleate] | 1500 | 940 |
| CN1Cc2c(cc(CN3CCCCC3)n2C)C(c2ccc(Br)cc2)C1 (stereo not drawn) [1,6-dimethyl-2-piperidino-methyl-4-(p-bromophenyl)-4,5,6,7-tetrahydro-pyrrolo-[2,3-c]pyridine dimaleate] | 2150 | 1000 |
| CN1Cc2c(cc(CN3CCCC3)n2C)C(c2ccc(Br)cc2)C1 (stereo not drawn) [1,6-dimethyl-2-pyrrolidino-methyl-4-(p-bromophenyl)-4,5,6,7-tetrahydro-pyrrolo-[2,3-c]pyridine dimaleate] | 2100 | 760 |
